According to US20150359843:
Construct, isoform or probe ends are uncertain for at least one entry. The comparison behind a weaker result is the experiment's own reference, which may not be listed here.

Target: p53 core domain (UniProt P04637)
Test: binding assay
Conditions: CITED, unit not given, purified recombinant protein

“CGCGCCTGCAAGTCCTGACTTGTCCGCGGC (double strand) [PUMA-BS2 RE (qPCR-tagged fragment)]”: binds.

“CTTGGGAACAAGGGCATGAGCTTGTCTGGGCT (double strand) [P2XM RE (qPCR-tagged fragment)]”: binds more weakly (construct not explicitly stated).

“TAGAGGAAGAAGACTGGGCATGTCTGGGCA (double strand) [p21 3' site RE (qPCR-tagged fragment)]”: binds.
